Here are results for two molecules from patent US20140323341A1, “SYSTEMS AND METHODS FOR ASSESSMENT OF BIOSIMILARITY” (ATTAGENE, INC., priority 2011, published 2014).

This series concerns NR activity in HepG2 cells. As to conditions: 0.1 mM, 24 hours, 46 transcription factors; for r. correlation between organotins' TF signatures, vs ACT: Pearson correlation with ACT signature; for r. correlation between organotins' TF signatures, vs Cyh: Pearson correlation with Cyh signature; for r. correlation between organotins' TF signatures, vs TBT: Pearson correlation with TBT signature; for r. correlation between organotins' TF signatures, vs TPT: Pearson correlation with TPT signature.

Consider `[OH][Sn]([CH]1CCCCC1)([CH]1CCCCC1)[CH]1CCCCC1` [Cyh, cyhexatin], for which the “r. correlation between organotins' TF signatures, vs ACT” value stood at 0.95; the “r. correlation between organotins' TF signatures, vs Cyh” value is given as 1; the “r. correlation between organotins' TF signatures, vs TBT” value stood at 0.93; the “r. correlation between organotins' TF signatures, vs TPT” value was found to be 0.95.

On to `c1nc[n]([Sn]([CH]2CCCCC2)([CH]2CCCCC2)[CH]2CCCCC2)n1` [ACT, azocyclotin], for which the “r. correlation between organotins' TF signatures, vs ACT” value came to 1; the “r. correlation between organotins' TF signatures, vs Cyh” value amounted to 0.95; the “r. correlation between organotins' TF signatures, vs TBT” value is reported as 0.95; the “r. correlation between organotins' TF signatures, vs TPT” value came to 0.97.
